The list is a part of this screen's results and no random one: it gathers some chemical classes. Not every dose and run of a compound is shown. T/C: endpoint of the treated group in % of that of the vehicle group. For survival time, the PubChem record calls one and a half times the control and up active, and a quarter to a half above the control has no call in these data; cut-offs in other NCI protocols can differ. Some entries show no survivor count and are marked so; the dose need not have been tolerated. Schedules are NCI's codes, taken here to give the interval after Q, in days (D) or hours (H), and the number of doses after X. Some schedules carry Z or #; the key to these is not given. Some entries hold several experiments; their values stand side by side, smallest first.
System: P335 leukemia ip, BDF1 mice, survival T/C %
Assay: NCI In Vivo Anticancer Drug Screen. Data for tumor model P335 Leukemia (intraperitoneal) in B6D2F1 (BDF1) mice
Settings: T/C endpoint: mean survival time, schedule: Q01DX Z (ip), higher T/C = longer survival
Experimental: The antitumor activity of compounds was measured in mice bearing transplantable tumors. Survival or tumor size were measured and the results are expressed as the measurement made in the treated group (T) divided by the measurement made in the vehicle treated control group (C). The tumor model used in this assay is P335 Leukemia (intraperitoneal) in B6D2F1 (BDF1) mice

[1] = dose: 1.25 mg/kg/injection, vehicle: carboxymethylcellulose (CMC)
[2] = dose: 0.62 mg/kg/injection, vehicle: carboxymethylcellulose (CMC)

## ClCCN(CCCl)Cc1nc2ccccc2[nH]1
[1]
  T/C: 87 % of control [survivor count not shown]
dose: 2.5 mg/kg/injection, vehicle: carboxymethylcellulose (CMC)
  T/C: 88 % of control [survivor count not shown]
dose: 5.0 mg/kg/injection, vehicle: carboxymethylcellulose (CMC)
  T/C: 103 % of control [survivor count not shown]

## O=C(O)CN(CCCl)CCCl
dose: 0.5 mg/kg/injection, vehicle: saline
  T/C: 105 % of control [survivor count not shown]
dose: 1.0 mg/kg/injection, vehicle: saline
  T/C: 87 % of control [survivor count not shown]
dose: 2.0 mg/kg/injection, vehicle: saline
  T/C: 111 % of control [survivor count not shown]
dose: 4.0 mg/kg/injection, vehicle: saline
  T/C: 94 % of control [survivor count not shown]

## ClCCNCCCl
dose: 3.1 mg/kg/injection, vehicle: carboxymethylcellulose (CMC)
  T/C: 102 % of control [survivor count not shown]
dose: 6.25 mg/kg/injection, vehicle: carboxymethylcellulose (CMC)
  T/C: 86 % of control [survivor count not shown]
dose: 12.5 mg/kg/injection, vehicle: carboxymethylcellulose (CMC)
  T/C: 92 [survivor count not shown] and 127 % of control [survivor count not shown]
dose: 25.0 mg/kg/injection, vehicle: carboxymethylcellulose (CMC)
  T/C: 98 [survivor count not shown], 99 [survivor count not shown], 124 % of control [survivor count not shown]
dose: 50.0 mg/kg/injection, vehicle: carboxymethylcellulose (CMC)
  T/C: 102 [survivor count not shown] and 135 % of control [survivor count not shown]

## CC(C(=O)O)N(CCCl)CCCl (configuration not stated)
dose: 0.31 mg/kg/injection, vehicle: carboxymethylcellulose (CMC)
  T/C: 96 % of control [survivor count not shown]
[2]
  T/C: 100 % of control [survivor count not shown]
[1]
  T/C: 87 % of control [survivor count not shown]

## NC(Cc1cccc(N(CCCl)CCCl)c1)C(=O)O (configuration not stated)
[2]
  T/C: 103 % of control [survivor count not shown]
[1]
  T/C: 111 % of control [survivor count not shown]
